Reference: publication PMC7819943, “Rice protein-binding microarrays: a tool to detect cis-acting elements near promoter regions in rice”
This is one part of the list.

Chains of the proteins cited; added tags and fusions are not shown.
UniProt Q0JBA9, entry or part of it: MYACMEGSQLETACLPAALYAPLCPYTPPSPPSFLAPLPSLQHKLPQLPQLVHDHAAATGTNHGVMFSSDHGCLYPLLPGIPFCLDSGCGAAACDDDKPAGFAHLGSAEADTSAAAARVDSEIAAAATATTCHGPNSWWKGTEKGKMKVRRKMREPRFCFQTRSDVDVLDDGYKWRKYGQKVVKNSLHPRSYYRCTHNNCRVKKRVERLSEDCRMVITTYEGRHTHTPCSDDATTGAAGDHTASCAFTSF

The sequences below were run against OsWRKY34 (Oryza sativa, UniProt Q0JBA9 1-250) (assay: protein-binding microarray (RPBM); PBS, 2% BSA, 51.3 ng/ul salmon testes DNA, 50 uM zinc acetate, 200 nM TF, 25 C, 1 h; high values mean tight binding). Settings: protein: recombinant; tags: N-terminal polyhistidine and DsRed monomer fusion (pET32a); label: CyDye5-dUTP incorporated in the synthesized complementary strand; 3' TTTTT single-stranded linker to array surface; dsDNA, one strand shown.
In short: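 Using Ni–NTA, transcription factors fused N-terminally to polyhistidine and DsRed were purified after expression in E. coli BL21-CodonPlus. These were incubated at 200 nM with a blocked, double-stranded custom Agilent array for 1 h at 25 °C in a buffer containing 50 µM zinc acetate, and the array was washed. The binding signal is per-feature fluorescence intensity (arbitrary units) on an Axon 4000B scanner.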

Sequence	binding signal
CTCTCTATTTGTTGACCAGTCTGATTTTCGTCCCTAACCGCGGAGTCACCTAGTGCAG	9360 fluorescence intensity (a.u.)
TTACGATTTCGTCTAACCGATCTATATTTTTGCTATTTTCCGGAGTCACCTAGTGCAG	10900 fluorescence intensity (a.u.)
CACCCGTGCATCCCTACCCGCTGCTGGCCCCACCCGTCATCGGAGTCACCTAGTGCAG	14000 fluorescence intensity (a.u.)
GCACGAGCCTTCCACGTGGCAACGATTCGCCATCATTTTACGGAGTCACCTAGTGCAG	8990 fluorescence intensity (a.u.)
GGTGAATGGATCATCCACCCACTACTCCACCACTACACCACGGAGTCACCTAGTGCAG	8190 fluorescence intensity (a.u.)
AAATTTTTCCTGACTGATCTCACCACCAGCTAGGTTTCCTCGGAGTCACCTAGTGCAG	8410 fluorescence intensity (a.u.)
CAGTTTACCCTGCGGGCTACACCCATGTCCCCTTCACCTTCGGAGTCACCTAGTGCAG	8200 fluorescence intensity (a.u.)
GCCCATTTCTGCTTTATTCGAGGATCGTATCCGGTGCCCGCGGAGTCACCTAGTGCAG	8530 fluorescence intensity (a.u.)
ACCGTGAACACCGTCCCGTCCCCACTCCTCGCCGCGCTGCCGGAGTCACCTAGTGCAG	8140 fluorescence intensity (a.u.)
ACCCGAGCCGAGCCCAACGGTAATATTTCCTTTCCATTTCCGGAGTCACCTAGTGCAG	11500 fluorescence intensity (a.u.)
AAGGGCGAGGGTGGGTATGGGACAAGGCGGTGGACGATGGCGGAGTCACCTAGTGCAG	10300 fluorescence intensity (a.u.)
TGCTTACTATACTATTAATATCTGGTCCCATCTGTCATACCGGAGTCACCTAGTGCAG	9090 fluorescence intensity (a.u.)
AATATACCATCTTTGACCCACGTCTCATTGTCTTTGTAACCGGAGTCACCTAGTGCAG	9700 fluorescence intensity (a.u.)
CTTAGCAGGACGGACTTAGGGGTGGCAATTTTCTCTTTCTCGGAGTCACCTAGTGCAG	9140 fluorescence intensity (a.u.)
ATATATATATATATATATATATTTTGTCTTGAGTGGTTTGCGGAGTCACCTAGTGCAG	11700 fluorescence intensity (a.u.)
GTGACCGCCACGCCCGCTCCGCCGTCGGCCGCACACACGCCGGAGTCACCTAGTGCAG	9230 fluorescence intensity (a.u.)
CGTCCGCCGCACCACTCCATCTCCGATCTCCCTGAGTCGCCGGAGTCACCTAGTGCAG	8060 fluorescence intensity (a.u.)
GTTTGAATCATGTAGCTTAGCTCTCGCTCGATCGTCCAATCGGAGTCACCTAGTGCAG	8520 fluorescence intensity (a.u.)
GGCAAGAGAGAGAATTAAGCAGGTCAAAGTCAACTCATGCCGGAGTCACCTAGTGCAG	8100 fluorescence intensity (a.u.)
TTAATTGCTTGGTTTACTGACCATTTCCACTTGGAAAACTCGGAGTCACCTAGTGCAG	9380 fluorescence intensity (a.u.)
CTGCCGCGCTTCGTCGCCGCGCTCGCCCGTCTTTCGCTCTCGGAGTCACCTAGTGCAG	8230 fluorescence intensity (a.u.)

Sequence	binding signal
GCACCAAGGCCAATACTTGTCCGGATCACCAAGGACACCTCGGAGTCACCTAGTGCAG	8020 fluorescence intensity (a.u.)
GGTCAAATACGTACTAAAAAGTCAACGGTGTCAAACATTTCGGAGTCACCTAGTGCAG	12900 fluorescence intensity (a.u.)
CCCTAGCCATCCCGCCGCCTCCGCCGCCGACGACGACATGCGGAGTCACCTAGTGCAG	8860 fluorescence intensity (a.u.)
TCCGTTCTATCCTACGCATATCTTTACCTCTAGCAATTAACGGAGTCACCTAGTGCAG	11900 fluorescence intensity (a.u.)
ACACGCCCGCCCGCCGCCTCCACCGTCTCCGCTCGCCGCGCGGAGTCACCTAGTGCAG	10500 fluorescence intensity (a.u.)
TTGGGAGGGTTTTTCACGTTAAATCTCGTGTCTTCTGTAACGGAGTCACCTAGTGCAG	29500 fluorescence intensity (a.u.)
TTGAATCGATTCCCTTGCCTCACCTCGCTGTTGTCGCCGACGGAGTCACCTAGTGCAG	9000 fluorescence intensity (a.u.)
TATTTAACACCGTTGACTTTTTAGCACATGTTTGACCGTTCGGAGTCACCTAGTGCAG	38200 fluorescence intensity (a.u.)
TCCCTCTGTTTTACAATGTAAGTCATTCTAGCATTTCCCACGGAGTCACCTAGTGCAG	10300 fluorescence intensity (a.u.)
TGCTCTATCATACGAAATGTCACACTGTTTTGTGCGTGTTCGGAGTCACCTAGTGCAG	8520 fluorescence intensity (a.u.)
TTCTCTTGTCACCTTCACCAATTTTCTTTCCCCGTTGGTTCGGAGTCACCTAGTGCAG	11800 fluorescence intensity (a.u.)
CGGACCGTTTTGTACATACATTTATTCCTTCTTAATACAACGGAGTCACCTAGTGCAG	10300 fluorescence intensity (a.u.)
CATTCCATCATTCTTTCTTTCCTCTTCGAACTTTGTGCTTCGGAGTCACCTAGTGCAG	8280 fluorescence intensity (a.u.)
ATGCACCACAGATTCCGTTCGTCACGCGCCCGTTCACACCCGGAGTCACCTAGTGCAG	8090 fluorescence intensity (a.u.)
AATCCTCACGGGGCCTCACATCCCCTTTCTCGCCGGCGCCCGGAGTCACCTAGTGCAG	10700 fluorescence intensity (a.u.)
ATGGTTGGACTTTTTTTAGCTCTTTTCAGTTTAGTTTCCTCGGAGTCACCTAGTGCAG	12400 fluorescence intensity (a.u.)
CGATGTCGCCGTGTGGGTGGTGGTATATTTGGTTGTAATCCGGAGTCACCTAGTGCAG	10600 fluorescence intensity (a.u.)
TACCTCATTGGCACCTAGACCACACAATGCATTCAAAACACGGAGTCACCTAGTGCAG	8580 fluorescence intensity (a.u.)
CCTTACTCATTTTTTTATATAATTGCCTGGCGAAATTTTCCGGAGTCACCTAGTGCAG	9280 fluorescence intensity (a.u.)
AAACGACTCTCAACTTGTGCAATGGATCTGTTTTTCTACACGGAGTCACCTAGTGCAG	9530 fluorescence intensity (a.u.)
GACCACCCATCTAGTTTTAATTATATTATGGTTATATTTACGGAGTCACCTAGTGCAG	9660 fluorescence intensity (a.u.)

Fetched one by one from above, two records:
Sequence	binding signal
GACCACCCATCTAGTTTTAATTATATTATGGTTATATTTACGGAGTCACCTAGTGCAG	9660 fluorescence intensity (a.u.)
AAACGACTCTCAACTTGTGCAATGGATCTGTTTTTCTACACGGAGTCACCTAGTGCAG	9530 fluorescence intensity (a.u.)
